Data reported in PubChem BioAssay AID248 (DTP/NCI, 2004).
The list is a part of this screen's results and no random one: it is rich in T/C values a quarter to a half above the control, in often repeated tests (any T/C) and in doses without a T/C. Further doses and runs are listed elsewhere. T/C is the treated group as % of the vehicle group. Some doses have a count of surviving animals in place of a T/C: the source files T/C as zero there, which appears to mark a toxic dose or a test without result, not a measured value. Some survivor counts are full or nearly so, which does not show that the dose was tolerated: the source hardly ever lists a survival T/C far under the control, and the zero likely stands for such cases as well. Counts of survivors are from the toxicity check (mostly the fifth day) where no day follows; animals may have died later. Schedules are NCI's codes, read here as Q, the interval in days (D) or hours (H), X, the number of doses. Some schedule codes hold Z or #, which are not explained here. Some structures stand for samples that the source files as different forms (salt, stereo form or complex); doses refer to the form tested. Where survival is the endpoint, this PubChem deposit counts one and a half times the control or more as active, and values a quarter to a half above the control carry no call in these data; other NCI protocols may use other cut-offs. Some T/C values carry the count of animals alive at the toxicity check (mostly the fifth day); without a count, all were alive then. Some entries hold several experiments; the values are given in rising order.

System: L1210 leukemia ip in BDF1 mice, survival T/C
Experiment: NCI In Vivo Anticancer Drug Screen. Data for tumor model L1210 Leukemia (intraperitoneal) in B6D2F1 (BDF1) mice
Settings: T/C endpoint: mean survival time, higher T/C = longer survival
[1] = dose: 100.0 mg/kg/injection, schedule: Q01DX009 (ip), vehicle: saline with Tween-80
[2] = dose: 200.0 mg/kg/injection, schedule: Q01DX009 (ip), vehicle: saline with Tween-80
[3] = dose: 400.0 mg/kg/injection, schedule: Q01DX001 (ip), vehicle: saline
[4] = dose: 100.0 mg/kg/injection, schedule: Q01DX009 (ip), vehicle: Klucel (hydroxypropylcellulose) (HPC)
[5] = dose: 200.0 mg/kg/injection, schedule: Q04DX003 (ip), vehicle: Klucel (hydroxypropylcellulose) (HPC)
[6] = dose: 400.0 mg/kg/injection, schedule: Q01DX009 (ip), vehicle: Klucel (hydroxypropylcellulose) (HPC)
[7] = dose: 300.0 mg/kg/injection, schedule: Q01DX001 (ip), vehicle: other
[8] = dose: 100.0 mg/kg/injection, schedule: Q01DX001 (ip), vehicle: other
[9] = dose: 200.0 mg/kg/injection, schedule: Q01DX001 (ip), vehicle: other

With `CC(C)CCCC(C)C1CCC2C3CC=C4CC(OCCO)CCC4(C)C3CCC12C` (stereo not given) the survivor count (dose: 50.0 mg/kg/injection, schedule: Q01DX009 (ip), vehicle: other) was 3 of 3.
For `COc1cccc(OC)c1OC(=O)Nc1cccc(SC)c1`, the survivor count [1] was 3 of 3.
`Cc1ccc(Cl)cc1NC(=O)c1ccc([N+](=O)[O-])cc1` was tested, and the survivor count [2] was 6 of 6.
For `CS(=O)(=O)Oc1ccccc1OS(C)(=O)=O`, the survivor count (dose: 400.0 mg/kg/injection, schedule: Q04DX002 (ip), vehicle: saline with Tween-80) was 0 of 3.
`Cc1ccc(C[P+](c2ccccc2)(c2ccccc2)c2ccccc2)cc1` was tested, and the survivor count (dose: 16.0 mg/kg/injection, schedule: Q01DX015 (ip), vehicle: saline) was 5 of 6 and the survivor count (dose: 80.0 mg/kg/injection, schedule: Q01DX001 (ip), vehicle: saline) was 0 of 6.
For `Cc1cc(=O)[nH]c(N2CCOCC2)n1`, the survivor count [3] was 2 of 4.
In the case of `Nc1cccc(Nc2cc(S(=O)(=O)O)c(N)c3c2C(=O)c2ccccc2C3=O)c1`, the survivor count [3] is reported as 1 of 6.
With `COC(=O)/C(=C\c1ccccc1)CNC(C)(C)C` the survivor count [3] was 0 of 3.
With `CN(C)c1ccc2[nH]c(=O)c3ccccc3c2c1` the survivor count (dose: 150.0 mg/kg/injection, schedule: Q01DX001 (ip), vehicle: carboxymethylcellulose (CMC)) was 3 of 6 and the survivor count (dose: 300.0 mg/kg/injection, schedule: Q01DX001 (ip), vehicle: carboxymethylcellulose (CMC)) was 0 of 6.
For `CN(CCc1cn(C2OC(CO)C(O)C(O)C2O)cn1)C(=O)/C=C/c1ccccc1` (stereo not given), the T/C (dose: 200.0 mg/kg/injection, schedule: Q01DX005 (ip), vehicle: saline) was 138 % of control.
In the case of `CN(N=O)C(=O)NCc1ccc(Cl)cc1`, the survivor count (dose: 300.0 mg/kg/injection, schedule: Q01DX Z (ip), vehicle: carboxymethylcellulose (CMC)) is reported as 1 of 6.
With `Cc1ccc(/C(=N\N=C(N)N)c2ccccc2)cc1` the survivor count (dose: 120.0 mg/kg/injection, schedule: Q01DX Z (ip), vehicle: saline) was 0 of 6, the survivor count (dose: 120.0 mg/kg/injection, schedule: Q01DX Z (oral), vehicle: other) was 6 of 6 and the survivor count (dose: 240.0 mg/kg/injection, schedule: Q01DX Z (oral), vehicle: other) was 1 of 6.
With `COc1c(CO)c2c(c(OC)c1OC)-c1ccc(OC)c(=O)cc1[C@@H](NC(C)=O)CC2` the T/C (dose: 22.0 mg/kg/injection, schedule: Q01DX015 (ip), vehicle: saline) was 126 % of control, the T/C (dose: 50.0 mg/kg/injection, schedule: Q01DX015 (ip), vehicle: saline) was 135 % of control and the T/C (dose: 75.0 mg/kg/injection, schedule: Q01DX015 (ip), vehicle: saline) was 143 % of control.
`CSc1ncc(COP(=S)(OCc2cnc(SC)nc2N)OCc2cnc(SC)nc2N)c(N)n1` was tested, and the survivor count (dose: 100.0 mg/kg/injection, schedule: Q04DX003 (ip), vehicle: saline) was 6 of 6, the survivor count (dose: 200.0 mg/kg/injection, schedule: Q04DX003 (ip), vehicle: saline) was 3 of 6 and the survivor count (dose: 400.0 mg/kg/injection, schedule: Q04DX003 (ip), vehicle: saline) was 0 of 6.
With `COC(=O)c1[nH]cnc1/N=N/N(C)CCO` the T/C (dose: 177.0 mg/kg/injection, schedule: Q01DX015 (ip), vehicle: saline) was 125 % of control, the T/C (dose: 266.0 mg/kg/injection, schedule: Q01DX015 (ip), vehicle: saline) was 138 % of control and the T/C (dose: 400.0 mg/kg/injection, schedule: Q01DX015 (ip), vehicle: saline) was 146 % of control.
For `CC(=O)OC1C(CO)OC2C1Oc1nc(=N)c(F)cn12` (stereo not given), the survivor count (dose: 200.0 mg/kg/injection, schedule: Q04DX002 (ip), vehicle: saline) was 3 of 3 and the survivor count (dose: 400.0 mg/kg/injection, schedule: Q04DX002 (ip), vehicle: saline) was 3 of 3.
In the case of `CN(C(=O)c1ccccc1)N(C)C(=O)c1ccccc1`, the survivor count [4] is reported as 3 of 6 and the survivor count [5] is reported as 3 of 6.
With `CC(=O)Nc1ccc(OC(=O)Nc2ccc(F)c([N+](=O)[O-])c2)cc1` the survivor count [6] was 2 of 6.
With `CCCC(C)NNC(C)CCC` (stereo not given) the survivor count (dose: 150.0 mg/kg/injection, schedule: Q01DX001 (ip), vehicle: other) was 3 of 6, the survivor count (dose: 300.0 mg/kg/injection, schedule: Q01DX001 (ip), vehicle: acetone) was 2 of 6 and the survivor count [7] was 2 of 6.
`CN(C)c1ccccc1C#N` was tested, and the survivor count (dose: 400.0 mg/kg/injection, schedule: Q01DX009 (ip), vehicle: carboxymethylcellulose (CMC)) was 1 of 3.
With `O=NN(CCF)C(=O)Nc1ccccc1` the T/C (dose: 9.0 mg/kg/injection, schedule: Q01DX001 (ip), vehicle: other) was 135 % of control, the survivor count (dose: 37.0 mg/kg/injection, schedule: Q01DX001 (ip), vehicle: other) was 2 of 6 and the survivor count (dose: 50.0 mg/kg/injection, schedule: Q01DX001 (ip), vehicle: other) was 0 of 6. For the same compound, the survivor count (dose: 75.0 mg/kg/injection, schedule: Q01DX001 (ip), vehicle: other) was 0 of 6, the survivor count [8] was 0 of 6 and the survivor count [9] was 0 of 6. The survivor count (dose: 250.0 mg/kg/injection, schedule: Q01DX001 (ip), vehicle: other) was 0 of 6 and the survivor count [7] was 0 of 6.
With `CN(C)C1C=CS(=O)(=O)C1` (stereo not given) the survivor count (dose: 400.0 mg/kg/injection, schedule: Q01DX001 (ip), vehicle: Klucel (hydroxypropylcellulose) (HPC)) was 1 of 6.
In the case of `O=S1(=O)C(c2ccccc2)=C1c1ccccc1`, the survivor count [8] is reported as 0 of 6, the survivor count [9] is reported as 1 of 6 and the survivor count (dose: 400.0 mg/kg/injection, schedule: Q01DX001 (ip), vehicle: other) is reported as 0 of 6.
`O=C(/C=C/c1ccccc1)NC(=S)Nc1ccccc1F` was tested, and the survivor count (dose: 50.0 mg/kg/injection, schedule: Q01DX009 (ip), vehicle: saline with Tween-80) was 3 of 3, the T/C [1] was 86 and 90 % of control [5 of 6 alive] and the survivor count [1] was 3 of 3. The survivor count [2] was 6 of 6, the survivor count (dose: 400.0 mg/kg/injection, schedule: Q01DX009 (ip), vehicle: saline with Tween-80) was 4 of 6 and the survivor count (dose: 400.0 mg/kg/injection, schedule: Q04DX002 (ip), vehicle: alcohol) was 3 of 3.
In the case of `CC1(C)C(=NO)C(C)(C)C1=NO`, the survivor count (dose: 25.0 mg/kg/injection, schedule: Q04DX003 (ip), vehicle: Klucel (hydroxypropylcellulose) (HPC)) is reported as 3 of 6, the survivor count (dose: 50.0 mg/kg/injection, schedule: Q01DX009 (ip), vehicle: Klucel (hydroxypropylcellulose) (HPC)) is reported as 1 of 6 and the survivor count [4] is reported as 1 of 6. The survivor count (dose: 100.0 mg/kg/injection, schedule: Q04DX003 (ip), vehicle: Klucel (hydroxypropylcellulose) (HPC)) was 4 of 6, the survivor count (dose: 200.0 mg/kg/injection, schedule: Q01DX009 (ip), vehicle: Klucel (hydroxypropylcellulose) (HPC)) was 0 of 6 and the survivor count [5] was 3 of 6. For the same compound, the survivor count [6] was 0 of 6 and the survivor count (dose: 400.0 mg/kg/injection, schedule: Q04DX003 (ip), vehicle: Klucel (hydroxypropylcellulose) (HPC)) was 1 of 6.
